Data reported in patent US20170128059A1, “METHODS AND APPARATUS FOR PREVENTION OF SURGICAL SITE INFECTIONS” (priority 2015, published 2017).
At least one read-out could not be matched to a standard name with certainty.

Experiment: finite-element (COMSOL) simulation of local gentamicin delivery to a retracted surgical wound
Conditions: calculated model parameter, from glycerol capillary diffusion data in subcutaneous tissue
Text: In order to better understand the differences between systemic delivery and local delivery of therapeutic agents, a finite-element analysis software package (COMSOL) was used to generate a three dimensional (3D) model of a retracted surgical wound with a 12 cm incision. […] The 3D model shown in FIG. 23 was modeled in a Computer Aided Design (CAD) package (Solidworks) based on the geometry of the device and the retracted wound tissue in a cadaver.
Gentamicin, a member of the aminoglycoside family, was used as the antibiotic in the model due to its prevalence in clinical use to combat the enteric, gram-negative bacteria that cause wound infections. A concentration of 240 mg/L was delivered during the simulated 4 hr surgery based on standard clinical protocols.
where Φ, D, and C are the particle flux, diffusion coefficient, and concentration, respectively. […]
The diffusion coefficients of various solutes and solvents have been experimentally obtained and published. However, for solute-solvent combinations that have not been published or experimentally determined, the molecular weight of a given solute may be correlated to the diffusion coefficient in the same solvent using a logarithmic relation. […]
The simulation was run for four hours to mimic a standard colorectal procedure and the antibiotic flux and tissue concentration was recorded at each time step.

gentamicin
Capillary Permeability: 3.14E−4 1/s ^
